The values below come from PubChem BioAssay AID1919010 (Molecular Pharmacology Branch, DTP, NCI, 2023).

Values joined by “and” are separate entries in the source; they are usually repeats but may differ in a detail not shown here. Identical values can stand only once. Further values from the same series stand in other lists.

The assay has as its system Hs578T complex spheroid growth, percent test/control. Nature of the assay: Anticancer human tumor Hs578T cell line growth inhibition [AhR].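 Also: luminescent viability signal as a proxy for spheroid growth; spheroids exposed to agents for one week after three days of growth.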 To be noted: active compounds read low. An excerpt: Multicellular complex tumor spheroid response to aryl hydrocarbon receptor antagonists in combination with a variety of drugs and investigational agents in selected tumor cell lines
The current study was undertaken to assess response to aryl hydrocarbon receptor antagonists in combination with standard-of-care drugs and investigational agents in solid tumor complex spheroid models. Complex spheroids include a stromal component modeled by human endothelial cells (HUVEC) and fibroblasts modeled by human mesenchymal stem cells (MSCs). The concentration ranges selected for each drug and investigational agent were based upon clinically achievable concentrations if the clinical Cmax of the agent was known.
Compounds. The drugs and investigational agents: BAY 2416964 (NSC825713), GNF351 (NSC835774), CH-223191 (NSC835775), CPI-455 (NSC825282), aza-TdCyd (NSC777586), decitabine (NSC127716), belinostat (NSC758774), entinostat (NSC756642), pevonedistat (NSC761192), tazemetostat (NSC777109), talazoparib (NSC765396), olaparib (NSC753686), selinexor (NSC780203), nedisertib (M3814, NSC802822), bortezomib (NSC756655), venetoclax (NSC766270), doxorubicin (NSC123127), elimusertib (BAY189344, NSC800525), ceralasertib (AZD6738, NSC777638), TAK-243 (NSC785004), alisertib (NSC759677), etoposide (NSC141540), topotecan (NSC609699), eribulin (NSC707389), gemcitabine (NSC613327), carboplatin (NSC241240), cisplatin (NSC119875), and SN-38 (NSC673596) were obtained from the National Cancer Institute (NCI) Developmental Therapeutics Program Chemical Repository (32). The FDA-approved anticancer drug set is available from the Developmental Therapeutics Program at https://dtp.cancer.gov/organization/dscb/obtaining/available plates.htm. […] The stock solutions were prepared in dimethyl sulfoxide (DMSO, Sigma-Aldrich, St. Louis, MO, cat. D2650), except for the platinum compounds which were prepared in saline (Quality Biological, Gaithersburg, MD, cat. 114-055-101), at 800-fold the tested concentration and stored at -70 degrees C prior to their use. All drugs and investigational agents were tested over a range starting from a high concentration at or near the clinical Cmax and decreasing in half-log increments. If the clinical Cmax for an agent had not been determined, the highest concentration tested was 10 microM (Table 1).
Cell Culture. All cells were maintained in an incubator at 37 degrees C and 5% CO2 with 95% humidity. The PDC lines were cultured according to standard operating procedures established by the NCI PDMR (https://pdmr.cancer.gov). Briefly, all PDCs were thawed and cultured in Matrigel-coated flasks prepared with a working solution of 1X Ham's F-12 nutrient mix, without supplementation (Invitrogen, Waltham, MA, cat. 11765054), 100 U/mL penicillin-streptomycin (Invitrogen, cat. 15140122), and 2.5% Matrigel (Corning Inc., Corning, NY, cat. 354248) for the first three passages. All PDCs were cultured in complete DMEM/F-12 media containing advanced DMEM/F-12 (Invitrogen, cat. 12634028), 4.9% defined fetal bovine serum, heat inactivated (HyClone Laboratories Inc., Logan, UT, cat. SH30070.03HI), 389 ng/mL hydrocortisone (Sigma-Aldrich, cat. H4001), 9.7 ng/mL human EGF recombinant protein (Invitrogen, cat. PHG0313), 23.4 microg/mL adenine (Sigma-Aldrich, cat. A2786), 97.3 U/mL penicillin-streptomycin (Invitrogen, cat. 15140122), 1.9 mM L-glutamine (Invitrogen, cat. 25030081), and 9.7 microM Y-27632 dihydrochloride (Tocris Bioscience, Bristol, United Kingdom, cat. 1254). The PDCs were cultured in complete DMEM/F12 media without 10 microM Y-27632 dihydrochloride for at least two passages prior to the screen. The established cell lines NCI-H1341 and […] were cultured in DMEM/F-12, HEPES (Invitrogen, cat. 11330032), 5% defined fetal bovine serum (HyClone Laboratories Inc., cat. SH30070.03), ITS premix universal culture supplement [insulin (5 microg/mL), transferrin (5 microg/mL), and selenious acid (5 ng/mL)] […]

By viability, T/C is commonly meant the ratio of treated to control. Consider `Cc1cncc(-c2nc(NCCc3c[nH]c4ccccc34)c3ncn(C(C)C)c3n2)c1`, for which the viability, T/C runs as follows: (compound 0.1 µM) 117% and 105% (2×); (compound 1 µM) 114% and 98.9%; (compound 10 µM) 5.15% [middle of 5 runs].

Regarding `CC(CO)NC(=O)c1cc(-c2ccc(Cl)cc2)nn(-c2cnn(C)c2)c1=O` (stereo unspecified), the viability, T/C (compound 0.1 µM) was 118% and 109% and 107% (2×); the viability, T/C (compound 0.316 µM) is 123%; the viability, T/C (compound 1 µM) was 120%; the viability, T/C (compound 3.16 µM) was 117% [middle of 4 runs].

Consider `Cc1ccccc1N=Nc1ccc(NC(=O)c2ccnn2C)c(C)c1`, for which the viability, T/C was 106% (2×) and 120% (compound 0.316 µM); 104% and 101% (compound 1 µM); 95.5% [middle of 5 runs] (compound 3.16 µM); 69.3% [middle of 5 runs] (compound 10 µM).
